Data as given in PubChem BioAssay AID1224830 (NIAID, 2016).
Aim: 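Genes whose knock-down alters the TNF-alpha reporter response to LPS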 (primary screen). System: human THP-1 monocytic leukaemia cells, TNF dual-luciferase reporter clone, PMA-differentiated to macrophage-like cells. Knock-down reagent: siRNA pool against human genes, 50 nM. Timing: LPS for 4 h, given about 3 days after siRNA transfection. Treatment: bacterial LPS (TLR4 ligand), 10 ng/ml. Detection: 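TNF firefly reporter luminescence divided by renilla, normalised to the plate median, then turned into a robust z-score for each replicate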. Scale: TNF reporter robust z-score: higher = stronger TNF reporter response to LPS. Hit rule: 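a well is active when its z-score exceeds 2.8 or falls below -1.5; control wells carry no call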.
The whole screen tested about 18,000 reagents; below is an unselected part. Over the whole deposit, about 2,900 (16%) were called active. 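Calls are made per well; low scores hint the gene aids the LPS response, high scores that it dampens it.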 Repeated entries: four replicate wells of each siRNA pool.

| target | TNF reporter robust z-score | Outcome |
| --- | --- | --- |
| PDS5A (PDS5 cohesin associated factor A) | 0.68 | inactive |
| PDS5A (PDS5 cohesin associated factor A) | 0.58 | inactive |
| PDS5A (PDS5 cohesin associated factor A) | 1.54 | inactive |
| PDS5A (PDS5 cohesin associated factor A) | -0.15 | inactive |
| ST3GAL1 (ST3 beta-galactoside alpha-2,3-sialyltransferase 1) | -0.13 | inactive |
| ST3GAL1 (ST3 beta-galactoside alpha-2,3-sialyltransferase 1) | 1.45 | inactive |
| ST3GAL1 (ST3 beta-galactoside alpha-2,3-sialyltransferase 1) | -0.02 | inactive |
| ST3GAL1 (ST3 beta-galactoside alpha-2,3-sialyltransferase 1) | 0.63 | inactive |
| HOXA6 (homeobox A6) | 3.98 | active |
| HOXA6 (homeobox A6) | 4.43 | active |
| HOXA6 (homeobox A6) | 5.06 | active |
| HOXA6 (homeobox A6) | 4.06 | active |
| MIEN1 (migration and invasion enhancer 1) | 4.76 | active |
| MIEN1 (migration and invasion enhancer 1) | 3.19 | active |
| MIEN1 (migration and invasion enhancer 1) | 0.66 | inactive |
| MIEN1 (migration and invasion enhancer 1) | 1.15 | inactive |
| SHISA6 (shisa family member 6) | -1.11 | inactive |
| SHISA6 (shisa family member 6) | -0.32 | inactive |
| SHISA6 (shisa family member 6) | -1.46 | inactive |
| SHISA6 (shisa family member 6) | -1.2 | inactive |
| STUB1 (STIP1 homology and U-box containing protein 1) | -1.3 | inactive |
| STUB1 (STIP1 homology and U-box containing protein 1) | -1.4 | inactive |
| STUB1 (STIP1 homology and U-box containing protein 1) | -1.52 | active |
| STUB1 (STIP1 homology and U-box containing protein 1) | -0.17 | inactive |
| MED15 (mediator complex subunit 15) | -0.34 | inactive |
| MED15 (mediator complex subunit 15) | -0.24 | inactive |
| MED15 (mediator complex subunit 15) | 0.05 | inactive |
| MED15 (mediator complex subunit 15) | 0.01 | inactive |
| RANGRF (RAN guanine nucleotide release factor) | 0.87 | inactive |
| RANGRF (RAN guanine nucleotide release factor) | 1.63 | inactive |
| RANGRF (RAN guanine nucleotide release factor) | 2.02 | inactive |
| RANGRF (RAN guanine nucleotide release factor) | 4.08 | active |
| P2RX6 (purinergic receptor P2X 6) | 0.37 | inactive |
| P2RX6 (purinergic receptor P2X 6) | 0.71 | inactive |
| P2RX6 (purinergic receptor P2X 6) | 0 | inactive |
| P2RX6 (purinergic receptor P2X 6) | 1.49 | inactive |
| MIER1 (MIER1 transcriptional regulator) | -1.08 | inactive |
| MIER1 (MIER1 transcriptional regulator) | -0.7 | inactive |
| MIER1 (MIER1 transcriptional regulator) | -1.68 | active |
| MIER1 (MIER1 transcriptional regulator) | -1.1 | inactive |
| EXOC8 (exocyst complex component 8) | -0.41 | inactive |
| EXOC8 (exocyst complex component 8) | 0.14 | inactive |
| EXOC8 (exocyst complex component 8) | -0.24 | inactive |
| EXOC8 (exocyst complex component 8) | 0.09 | inactive |
| CDK5 (cyclin dependent kinase 5) | -0.21 | inactive |
| CDK5 (cyclin dependent kinase 5) | -0.31 | inactive |
| CDK5 (cyclin dependent kinase 5) | -0.16 | inactive |
| CDK5 (cyclin dependent kinase 5) | -0.22 | inactive |
| MTARC2 (mitochondrial amidoxime reducing component 2) | -0.57 | inactive |
| MTARC2 (mitochondrial amidoxime reducing component 2) | -0.61 | inactive |
| MTARC2 (mitochondrial amidoxime reducing component 2) | -0.13 | inactive |
| MTARC2 (mitochondrial amidoxime reducing component 2) | -0.92 | inactive |
| FPGS (folylpolyglutamate synthase) | -1.75 | active |
| FPGS (folylpolyglutamate synthase) | -1.69 | active |
| FPGS (folylpolyglutamate synthase) | -1.77 | active |
| FPGS (folylpolyglutamate synthase) | -1.96 | active |

Laid out differently: 5 of the entries above.
target,TNF reporter robust z-score,Outcome
PDS5A (PDS5 cohesin associated factor A),-0.15,inactive
"ST3GAL1 (ST3 beta-galactoside alpha-2,3-sialyltransferase 1)",-0.13,inactive
"ST3GAL1 (ST3 beta-galactoside alpha-2,3-sialyltransferase 1)",1.45,inactive
"ST3GAL1 (ST3 beta-galactoside alpha-2,3-sialyltransferase 1)",-0.02,inactive
"ST3GAL1 (ST3 beta-galactoside alpha-2,3-sialyltransferase 1)",0.63,inactive

The listing continues.
| target | TNF reporter robust z-score | Outcome |
| --- | --- | --- |
| RRAGB (Ras related GTP binding B) | 0.24 | inactive |
| RRAGB (Ras related GTP binding B) | 0.06 | inactive |
| RRAGB (Ras related GTP binding B) | 0.59 | inactive |
| RRAGB (Ras related GTP binding B) | 1.2 | inactive |
| TIPRL (TOR signaling pathway regulator) | 0.33 | inactive |
| TIPRL (TOR signaling pathway regulator) | -0.28 | inactive |
| TIPRL (TOR signaling pathway regulator) | 0.23 | inactive |
| TIPRL (TOR signaling pathway regulator) | 0.7 | inactive |
| DNAAF2 (dynein axonemal assembly factor 2) | -0.1 | inactive |
| DNAAF2 (dynein axonemal assembly factor 2) | 0.17 | inactive |
| DNAAF2 (dynein axonemal assembly factor 2) | -0.19 | inactive |
| DNAAF2 (dynein axonemal assembly factor 2) | -0.37 | inactive |
| MAPK7 (mitogen-activated protein kinase 7) | 0.08 | inactive |
| MAPK7 (mitogen-activated protein kinase 7) | 0.25 | inactive |
| MAPK7 (mitogen-activated protein kinase 7) | -0.03 | inactive |
| MAPK7 (mitogen-activated protein kinase 7) | 0.61 | inactive |
| ZNF112 (zinc finger protein 112) | -0.25 | inactive |
| ZNF112 (zinc finger protein 112) | 0.19 | inactive |
| ZNF112 (zinc finger protein 112) | -0.11 | inactive |
| ZNF112 (zinc finger protein 112) | -0.62 | inactive |
| FURIN (furin, paired basic amino acid cleaving enzyme) | -0.5 | inactive |
| FURIN (furin, paired basic amino acid cleaving enzyme) | 4.67 | active |
| FURIN (furin, paired basic amino acid cleaving enzyme) | 0.65 | inactive |
| FURIN (furin, paired basic amino acid cleaving enzyme) | -0.77 | inactive |
| CLDN6 (claudin 6) | -0.97 | inactive |
| CLDN6 (claudin 6) | -0.49 | inactive |
| CLDN6 (claudin 6) | -0.83 | inactive |
| CLDN6 (claudin 6) | -0.75 | inactive |
| MYLK (myosin light chain kinase) | -0.33 | inactive |
| MYLK (myosin light chain kinase) | -0.35 | inactive |
| MYLK (myosin light chain kinase) | -0.34 | inactive |
| MYLK (myosin light chain kinase) | -1.08 | inactive |
| TRIM17 (tripartite motif containing 17) | -1.24 | inactive |
| TRIM17 (tripartite motif containing 17) | 1.34 | inactive |
| TRIM17 (tripartite motif containing 17) | -0.56 | inactive |
| TRIM17 (tripartite motif containing 17) | 3.18 | active |
| SFN (stratifin) | -0.83 | inactive |
| SFN (stratifin) | -0.78 | inactive |
| SFN (stratifin) | -0.88 | inactive |
| SFN (stratifin) | -0.26 | inactive |
| PCDH20 (protocadherin 20) | 0.5 | inactive |
| PCDH20 (protocadherin 20) | 1.49 | inactive |
| PCDH20 (protocadherin 20) | -0.4 | inactive |
| PCDH20 (protocadherin 20) | 1.46 | inactive |
| ALAS2 (5'-aminolevulinate synthase 2) | -1.67 | active |
| ALAS2 (5'-aminolevulinate synthase 2) | -1.4 | inactive |
| ALAS2 (5'-aminolevulinate synthase 2) | -1.36 | inactive |
| ALAS2 (5'-aminolevulinate synthase 2) | -1.69 | active |
| STRADB (STE20 related adaptor beta) | -0.38 | inactive |
| STRADB (STE20 related adaptor beta) | 0.46 | inactive |
| STRADB (STE20 related adaptor beta) | 0.19 | inactive |
| STRADB (STE20 related adaptor beta) | -0.58 | inactive |
| CHM (CHM Rab escort protein) | -0.44 | inactive |
| CHM (CHM Rab escort protein) | -0.04 | inactive |
| CHM (CHM Rab escort protein) | -0.51 | inactive |
